Results on one compound are retold here after patent US20230167073A1 (Teijin Pharma Limited, priority 2020, published 2023).

By UniProt entry, the sequences of proteins in these tests, tags left out.
UniProt Q9Y210, whole entry: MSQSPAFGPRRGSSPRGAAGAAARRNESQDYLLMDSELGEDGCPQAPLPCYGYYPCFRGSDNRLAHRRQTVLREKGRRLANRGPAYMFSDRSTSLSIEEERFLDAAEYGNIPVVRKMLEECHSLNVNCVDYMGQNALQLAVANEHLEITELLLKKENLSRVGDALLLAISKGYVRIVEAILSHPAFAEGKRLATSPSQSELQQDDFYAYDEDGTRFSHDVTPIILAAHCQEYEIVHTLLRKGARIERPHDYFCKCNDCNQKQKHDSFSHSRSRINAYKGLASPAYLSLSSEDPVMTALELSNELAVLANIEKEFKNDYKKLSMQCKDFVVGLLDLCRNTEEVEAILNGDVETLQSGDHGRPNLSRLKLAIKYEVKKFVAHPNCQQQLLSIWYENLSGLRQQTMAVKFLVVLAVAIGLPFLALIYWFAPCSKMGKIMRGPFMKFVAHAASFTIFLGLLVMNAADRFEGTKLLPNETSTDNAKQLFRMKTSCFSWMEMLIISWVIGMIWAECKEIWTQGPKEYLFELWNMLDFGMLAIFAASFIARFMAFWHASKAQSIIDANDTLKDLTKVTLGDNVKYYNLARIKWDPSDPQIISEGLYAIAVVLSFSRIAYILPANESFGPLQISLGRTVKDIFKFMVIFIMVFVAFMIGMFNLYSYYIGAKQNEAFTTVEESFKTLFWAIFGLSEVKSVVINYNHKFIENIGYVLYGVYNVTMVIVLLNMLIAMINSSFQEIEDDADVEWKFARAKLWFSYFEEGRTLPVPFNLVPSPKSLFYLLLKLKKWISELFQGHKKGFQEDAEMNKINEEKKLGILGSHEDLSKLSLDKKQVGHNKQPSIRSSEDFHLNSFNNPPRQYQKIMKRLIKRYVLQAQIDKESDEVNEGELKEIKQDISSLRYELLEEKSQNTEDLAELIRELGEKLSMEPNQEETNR

The match of structure and compound is tentative.

The assay addresses Human TRPC6 (Homo sapiens, UniProt Q9Y210). The assay is described as follows: Evaluation of TRPC6 channel inhibitory activity (2), HEK293 cells with stably introduced human TRPC6, OAG stimulation, FLIPR tetra (Compound Nos. 1293 to 1405). The following applies: HEK293 cells with stably introduced human TRPC6, OAG 50 μM/0.5% DMSO. The protocol: Evaluation of TRPC6 Channel Inhibitory Activity (2) (Compound Nos. 1293 to 1405)
The activity of the TRPC6 inhibitor was measured by stimulating HEK293 cells, in which human TRPC6 was stably introduced, with OAG (1-Oleoyl-2-acetyl-sn-glycerol, Miliipore Sigma, 06754), using the FLIPR tetra system. The cells were proliferated in a humid environment at 37° C. […] A volume of 12.5 μL of OAG solution was added, and activation of TRPC6 channel was measured using the FLIPR tetra system assaying the change in intracellular calcium level as an index. The 180 seconds imaging frame was defined as the background signal, and the subtraction of the background signal from the raw data was used as the fluorescence peak signal. Each fluorescence peak signal is standardized using an OAG-induced signal and buffer-induced signal as 100% and 0%, respectively. […]

`Cn1nc(-c2ccccn2)cc1Oc1cc(Cl)cnc1-c1ccc(CN)cn1`: the “Inhibitory activity (pIC50 class)” value is recorded as “++ (6.0≤pIC50<8.0)”.
